Data: article PMC8484013

Sequences of proteins named here, by UniProt entry; tags and fusion partners are left off.
UniProt Q8WVD5: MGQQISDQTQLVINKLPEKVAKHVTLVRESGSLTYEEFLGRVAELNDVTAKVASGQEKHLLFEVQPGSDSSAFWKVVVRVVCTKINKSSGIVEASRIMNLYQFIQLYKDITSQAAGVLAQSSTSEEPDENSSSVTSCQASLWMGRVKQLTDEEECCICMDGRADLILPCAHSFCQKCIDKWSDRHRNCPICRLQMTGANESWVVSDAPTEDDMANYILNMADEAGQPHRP
UniProt O75608: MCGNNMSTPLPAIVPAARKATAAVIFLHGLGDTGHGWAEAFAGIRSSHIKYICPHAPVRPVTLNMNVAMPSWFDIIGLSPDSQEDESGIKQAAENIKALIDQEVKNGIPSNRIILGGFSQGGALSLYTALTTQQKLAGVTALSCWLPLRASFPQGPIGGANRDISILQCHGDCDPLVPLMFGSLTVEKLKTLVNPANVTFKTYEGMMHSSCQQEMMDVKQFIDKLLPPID

Molecular target: RNF141 (RING finger protein 141) in colorectal cancer cells (human (endogenous in HCT116 and other CRC cell lines)) (UniProt Q8WVD5)
Assay: affinity purification with mass spectrometry; IP of RNF141 combined with LC-MS/MS from HCT116 cells transfected with LV-NC or LV-RNF141

LYPLA1 (Lysophospholipase1), also known as APT1 (acyl-protein thioesterase 1) (from UniProt O75608 1-230) (enzyme)
binding: binds

These are yes or no findings as the source states them, for the method shown. In cells and extracts the contact can be indirect. Here binding means that the protein was enriched with, or labelled near, the bait; the list need not be complete.
